Measured values reported in publication PMC5150223.
These are yes or no findings as the source states them, for the method shown. In cells and extracts the contact can be indirect. Some results given as binding are weak or reduced against the parent protein; the word gives no strength.

Sequences of proteins named here, by UniProt entry; tags and fusion partners are left off. Residues count along the entry.
UniProt P17181, residues 28-557: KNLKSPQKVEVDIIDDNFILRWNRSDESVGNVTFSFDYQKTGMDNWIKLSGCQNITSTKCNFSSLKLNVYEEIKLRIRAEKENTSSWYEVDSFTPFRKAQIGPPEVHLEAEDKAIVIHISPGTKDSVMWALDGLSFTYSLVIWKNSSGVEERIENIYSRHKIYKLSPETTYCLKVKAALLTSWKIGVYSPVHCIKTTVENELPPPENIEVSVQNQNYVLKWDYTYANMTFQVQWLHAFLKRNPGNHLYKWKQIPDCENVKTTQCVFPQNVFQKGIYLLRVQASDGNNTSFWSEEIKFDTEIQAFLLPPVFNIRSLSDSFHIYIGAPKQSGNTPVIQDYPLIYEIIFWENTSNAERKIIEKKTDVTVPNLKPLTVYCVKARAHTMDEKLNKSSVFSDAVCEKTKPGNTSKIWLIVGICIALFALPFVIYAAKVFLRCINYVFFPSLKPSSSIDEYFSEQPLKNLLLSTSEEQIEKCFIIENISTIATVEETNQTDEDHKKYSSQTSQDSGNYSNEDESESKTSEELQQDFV

Molecular target: T1, type-I interferon (IFN-α/β) receptor subunit IFNAR2 (human (endogenous in RPE1)) (UniProt P48551)
T1 sequence: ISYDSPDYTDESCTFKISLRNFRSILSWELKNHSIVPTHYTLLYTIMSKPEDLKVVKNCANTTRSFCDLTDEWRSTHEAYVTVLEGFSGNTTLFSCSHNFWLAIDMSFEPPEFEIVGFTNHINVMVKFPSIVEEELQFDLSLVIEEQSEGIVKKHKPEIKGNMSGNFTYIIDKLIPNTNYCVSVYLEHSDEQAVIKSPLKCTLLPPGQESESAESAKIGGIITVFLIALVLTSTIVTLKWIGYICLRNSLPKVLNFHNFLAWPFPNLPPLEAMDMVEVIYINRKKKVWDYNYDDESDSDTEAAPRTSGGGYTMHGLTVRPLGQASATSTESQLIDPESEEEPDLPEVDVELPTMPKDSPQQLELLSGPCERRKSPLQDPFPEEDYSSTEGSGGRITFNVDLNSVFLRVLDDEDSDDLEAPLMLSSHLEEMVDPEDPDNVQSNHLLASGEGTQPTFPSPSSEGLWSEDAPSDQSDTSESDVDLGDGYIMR
Assay: proximity ligation; in situ PLA in RPE1 cells; anti-IFNAR1 or anti-IFNAR2 antibody bound on ice, IFN-α at 37 °C for the indicated times, cells fixed and permeabilised; control and VPS35-depleted cells

binding: binds
Substance: type-I interferon (IFN-α/β) receptor subunit IFNAR1 (from UniProt P17181 28-557)
